Among the data in publication PMC4597190 are binding values, retold here.

Amino acid sequences for entries named in this document (tags omitted).
UniProt P34152: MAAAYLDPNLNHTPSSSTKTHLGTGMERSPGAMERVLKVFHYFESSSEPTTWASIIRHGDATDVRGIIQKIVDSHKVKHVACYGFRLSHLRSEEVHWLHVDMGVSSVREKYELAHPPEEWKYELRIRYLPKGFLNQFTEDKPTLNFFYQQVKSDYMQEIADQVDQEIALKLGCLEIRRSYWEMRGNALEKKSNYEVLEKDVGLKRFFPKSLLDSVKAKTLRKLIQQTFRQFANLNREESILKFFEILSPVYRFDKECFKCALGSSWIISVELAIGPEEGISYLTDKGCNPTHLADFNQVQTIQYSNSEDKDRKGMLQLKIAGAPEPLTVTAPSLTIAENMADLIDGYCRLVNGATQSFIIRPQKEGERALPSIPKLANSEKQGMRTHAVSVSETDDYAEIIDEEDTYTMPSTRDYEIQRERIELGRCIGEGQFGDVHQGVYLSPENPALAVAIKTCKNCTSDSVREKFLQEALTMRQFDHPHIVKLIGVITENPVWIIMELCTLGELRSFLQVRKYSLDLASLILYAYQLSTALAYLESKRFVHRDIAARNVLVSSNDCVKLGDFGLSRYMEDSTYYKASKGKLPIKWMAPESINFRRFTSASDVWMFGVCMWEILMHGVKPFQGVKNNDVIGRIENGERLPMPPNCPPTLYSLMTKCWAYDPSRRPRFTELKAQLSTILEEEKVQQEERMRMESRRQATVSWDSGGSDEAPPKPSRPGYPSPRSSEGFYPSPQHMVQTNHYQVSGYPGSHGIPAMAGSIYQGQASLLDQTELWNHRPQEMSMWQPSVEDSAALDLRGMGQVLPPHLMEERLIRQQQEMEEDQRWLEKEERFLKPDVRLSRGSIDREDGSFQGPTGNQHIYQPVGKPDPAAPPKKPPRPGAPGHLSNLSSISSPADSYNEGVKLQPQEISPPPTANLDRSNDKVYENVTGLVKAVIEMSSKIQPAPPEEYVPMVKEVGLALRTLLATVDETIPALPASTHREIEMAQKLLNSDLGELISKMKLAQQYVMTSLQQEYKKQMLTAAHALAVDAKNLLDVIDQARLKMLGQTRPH

Results are given in words; binding and its absence hold for the method and conditions named. In cells and extracts the contact can be indirect. Here binding means that the protein was enriched with, or labelled near, the bait; the list need not be complete.

The assay addresses Focal adhesion kinase (FAK), wild-type, re-expressed in FAK-deficient SCC cells (UniProt P34152). The assay can be described thus: affinity purification with mass spectrometry; FAK immunoprecipitation from purified nuclear extracts, on-bead digestion, quantitative label-free LC-MS/MS; SCC FAK-WT over SCC FAK-/- controls.

B1: TAF12, TBP-associated factor, component of the TFIID complex (protein, UniProt Q8VE65 1-161)
chain: MNQFGPSALINLSSFSSVKPEPASTPPQGSMANSTTVGKIAGTPGTGGRLSPENNQVLTKKKLQDLVREVDPNEQLDEDVEEMLLQIADDFIESVVTAACQLARHRKSSTLEVKDVQLHLERQWNMWIPGFGSEEIRPYKKACTTEAHKQRMALIRKTTKK
For B1, the binding entry was “binds”.
